Assay results published in the supplement of paper PMC4604168 (melanoma cell lines).
The list shows a part of the results. Single values are uncertain, as repeats are few or missing.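 Imaging used 1,536-well plates; nuclei positive for cleaved PARP by antibody were divided by total DNA-stained nuclei to yield the apoptosis fraction. Doses for screening kept most cells viable, and cell lines differ markedly in resting and induced cleaved-PARP levels.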

Tests used:
Assay in all cases: cleaved PARP positive nuclei fraction relative to DMSO control; melanoma cells; higher = more apoptosis
Conditions in all cases: library dose: low library concentration; 72 h
501Mel = tested on: 501Mel
A101D = tested on: A101D
A2058 = tested on: A2058
C32 = tested on: C32
CBRC008 = tested on: CBRC008 (line from a melanoma biopsy)
CBRC014 = tested on: CBRC014 (line from a melanoma biopsy)
CBRC016 = tested on: CBRC016 (line from a melanoma biopsy)
CBRC017 = tested on: CBRC017 (line from a melanoma biopsy)

## Cn1cc(C2=C(c3cn(C4CCN(Cc5ccccn5)CC4)c4ccccc34)C(=O)NC2=O)c2ccccc21 [Enzastaurin] + Oc1cc(-c2nc(-c3ccccc3)[nH]c2-c2ccncc2)ccc1Cl [L779450] (first compound 0.8 µM, partner dose 0.2 µM)
501Mel
  cleaved PARP positive nuclei fraction: 107%
A101D
  cleaved PARP positive nuclei fraction: 51.9%
A2058
  cleaved PARP positive nuclei fraction: 130%
C32
  cleaved PARP positive nuclei fraction: 114%
CBRC008
  cleaved PARP positive nuclei fraction: 48.4%
CBRC014
  cleaved PARP positive nuclei fraction: 90.1%
CBRC016
  cleaved PARP positive nuclei fraction: 71.9%
CBRC017
  cleaved PARP positive nuclei fraction: 786%

## N.N.[Cl][Pt][Cl] [cisplatin] + COc1ccc2c(c1)CCC1C2CCC2(C)C(NCCCCCCN3C(=O)C=CC3=O)CCC12 [U73122] (first compound 1.6 µM, partner dose 0.4 µM)
501Mel
  cleaved PARP positive nuclei fraction: 31.3%
A101D
  cleaved PARP positive nuclei fraction: 10.6%
A2058
  cleaved PARP positive nuclei fraction: 89.6%
C32
  cleaved PARP positive nuclei fraction: 222%
CBRC008
  cleaved PARP positive nuclei fraction: 59.8%
CBRC014
  cleaved PARP positive nuclei fraction: 100%
CBRC016
  cleaved PARP positive nuclei fraction: 87.5%
CBRC017
  cleaved PARP positive nuclei fraction: 112%

## CS(=O)(=O)CCNCc1ccc(-c2ccc3ncnc(Nc4ccc(OCc5cccc(F)c5)c(Cl)c4)c3c2)o1 [lapatinib] + O=C(Oc1ccc([N+](=O)[O-])cc1)N1CCC(C(O)(c2ccc3c(c2)OCO3)c2ccc3c(c2)OCO3)CC1 [JZL184] (first compound 0.8 µM, partner dose 1 µM)
501Mel
  cleaved PARP positive nuclei fraction: 30.7%
A101D
  cleaved PARP positive nuclei fraction: 45.7%
A2058
  cleaved PARP positive nuclei fraction: 74%
C32
  cleaved PARP positive nuclei fraction: 35.5%
CBRC008
  cleaved PARP positive nuclei fraction: 167%
CBRC014
  cleaved PARP positive nuclei fraction: 99.7%
CBRC016
  cleaved PARP positive nuclei fraction: 60.1%
CBRC017
  cleaved PARP positive nuclei fraction: 61.2%

## Cn1cc(C2=C(c3cn(C4CCN(Cc5ccccn5)CC4)c4ccccc34)C(=O)NC2=O)c2ccccc21 [Enzastaurin] + COc1cc(N2CCC(N3CCN(C)CC3)CC2)ccc1Nc1ncc(Cl)c(Nc2ccccc2S(=O)(=O)C(C)C)n1 [NVP-TAE684] (first compound 0.8 µM, partner dose 0.08 µM)
501Mel
  cleaved PARP positive nuclei fraction: 87.8%
A101D
  cleaved PARP positive nuclei fraction: 27.2%
A2058
  cleaved PARP positive nuclei fraction: 168%
C32
  cleaved PARP positive nuclei fraction: 76.8%
CBRC008
  cleaved PARP positive nuclei fraction: 147%
CBRC014
  cleaved PARP positive nuclei fraction: 101%
CBRC016
  cleaved PARP positive nuclei fraction: 64.8%
CBRC017
  cleaved PARP positive nuclei fraction: 81%

## O=C(Nc1cc(C(F)(F)F)cc(C(F)(F)F)c1)c1cc(Cl)ccc1O + Cc1cc(SCc2sc(-c3ccc(C(F)(F)F)c(F)c3)nc2C)ccc1OCC(=O)O [GW0742] (first compound 0.016 µM, partner dose 2 µM)
501Mel
  cleaved PARP positive nuclei fraction: 71.7%
A101D
  cleaved PARP positive nuclei fraction: 32.6%
A2058
  cleaved PARP positive nuclei fraction: 102%
C32
  cleaved PARP positive nuclei fraction: 60.3%
CBRC008
  cleaved PARP positive nuclei fraction: 320%
CBRC014
  cleaved PARP positive nuclei fraction: 83.7%
CBRC016
  cleaved PARP positive nuclei fraction: 85.5%
CBRC017
  cleaved PARP positive nuclei fraction: 127%
